From US6255089A (priority 1998, dated 2001)

Test system: 5-HT2A cys→lys mutant receptor
Details: COS-7, 5-HT2A cys→lys receptor; inverse agonism

## O=C(CCCN1CCC2(CC1)C(=O)NCN2c1ccccc1)c1ccc(F)cc1 [spiperone]
  decrease of the constitutive IP stimulation: 58%
